We go through one molecule from patent US20250388643A1, “GLUCAGON-LIKE PEPTIDE-2 COMPOSITIONS AND METHODS OF MAKING AND USING SAME” (Amunix Pharmaceuticals, Inc., priority 2011, published 2025).

This experiment concerns the target T1, GLP-2 receptor (GLP2 G-protein coupled receptor) on transfected GLP2R cell line (Millipore, Cat #HTS164C) (human) (UniProt O95838).
T1 sequence (looked up): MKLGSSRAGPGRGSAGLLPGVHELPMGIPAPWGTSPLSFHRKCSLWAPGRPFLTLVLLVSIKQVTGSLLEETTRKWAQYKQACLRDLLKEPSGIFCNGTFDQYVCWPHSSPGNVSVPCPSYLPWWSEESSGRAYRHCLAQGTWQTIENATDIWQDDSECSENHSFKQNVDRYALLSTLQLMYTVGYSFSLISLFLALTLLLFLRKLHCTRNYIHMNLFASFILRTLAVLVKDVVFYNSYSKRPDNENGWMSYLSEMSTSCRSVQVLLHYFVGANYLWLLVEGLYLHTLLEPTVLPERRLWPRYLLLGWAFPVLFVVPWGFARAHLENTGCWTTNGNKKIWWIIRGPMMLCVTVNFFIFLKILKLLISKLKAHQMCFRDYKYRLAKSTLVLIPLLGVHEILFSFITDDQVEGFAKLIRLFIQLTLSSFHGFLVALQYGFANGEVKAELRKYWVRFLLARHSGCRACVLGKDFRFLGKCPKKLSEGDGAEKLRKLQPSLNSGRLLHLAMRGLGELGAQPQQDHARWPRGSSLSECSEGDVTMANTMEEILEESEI
Put plainly: calcium flux assay on GLP2R-transfected cells (GPCR Profiler, Millipore), called a receptor binding assay by the filing.

No constants are given. Whether binding was seen depends on the method and setting. Some binding calls cover weakened binding; strength is not graded here. Where a sequence is shown, tags or fusion partners need not be part of it.

B1: GLP2-2G-XTEN_AE864 fusion protein (ligand)
chain: HGDGSFSDEMNTILDNLAARDFINWLIQTKITDGGSPAGSPTSTEEGTSESATPESGPGTSTEPSEGSAPGSPAGSPTSTEEGTSTEPSEGSAPGTSTEPSEGSAPGTSESATPESGPGSEPATSGSETPGSEPATSGSETPGSPAGSPTSTEEGTSESATPESGPGTSTEPSEGSAPGTSTEPSEGSAPGSPAGSPTSTEEGTSTEPSEGSAPGTSTEPSEGSAPGTSESATPESGPGTSTEPSEGSAPGTSESATPESGPGSEPATSGSETPGTSTEPSEGSAPGTSTEPSEGSAPGTSESATPESGPGTSESATPESGPGSPAGSPTSTEEGTSESATPESGPGSEPATSGSETPGTSESATPESGPGTSTEPSEGSAPGTSTEPSEGSAPGTSTEPSEGSAPGTSTEPSEGSAPGTSTEPSEGSAPGTSTEPSEGSAPGSPAGSPTSTEEGTSTEPSEGSAPGTSESATPESGPGSEPATSGSETPGTSESATPESGPGSEPATSGSETPGTSESATPESGPGTSTEPSEGSAPGTSESATPESGPGSPAGSPTSTEEGSPAGSPTSTEEGSPAGSPTSTEEGTSESATPESGPGTSTEPSEGSAPGTSESATPESGPGSEPATSGSETPGTSESATPESGPGSEPATSGSETPGTSESATPESGPGTSTEPSEGSAPGSPAGSPTSTEEGTSESATPESGPGSEPATSGSETPGTSESATPESGPGSPAGSPTSTEEGSPAGSPTSTEEGTSTEPSEGSAPGTSESATPESGPGTSESATPESGPGTSESATPESGPGSEPATSGSETPGSEPATSGSETPGSPAGSPTSTEEGTSTEPSEGSAPGTSTEPSEGSAPGSEPATSGSETPGTSESATPESGPGTSTEPSEGSAPG
B1: the binding entry was “binds”.
